Source: PubChem BioAssay AID493014 (National Center for Advancing Translational Sciences (NCATS), 2011)
The other results are listed elsewhere or left out. Shown are side measurements of this screen, not its main read-out; they come without a call. Most of these compounds were active or inconclusive in the main read-out, so they are no random draw. The note in brackets gives the kind of curve behind each potency; many fits are weak.

Assay: qHTS Assay to Find Inhibitors of Chronic Active B-Cell Receptor Signaling
Conditions: ABC-DLBCL IkBa-CBG/CBR reporter, luminescence ratio (green luciferase fused to IkBa over red control in TMD8 lymphoma cells), 4 h
How it was run: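 TMD8 ABC-DLBCL cells carrying doxycycline-inducible green luciferase fused to IkappaBalpha plus unfused red luciferase were exposed to compounds (up to 46 uM) for 4 hrs at 37C. Activity came from the overlap-corrected green/red luminescence ratio.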

[1] = measured here: CBR red luminescence, cell number
[2] = measured here: IkBa-CBG green luminescence

In the case of `CCc1cccc(CC)c1NC(=O)CCCSc1nc2ccccc2s1`, the AC50 [1] is reported as 2.06 µM [rising, full curve, poor fit] and the AC50 [2] is reported as 20.6 µM [rising, partial curve, poor fit].
In the case of `CN(C)CC(CCC(CN(C)C)C(=O)c1ccccc1)C(=O)c1ccccc1` (stereo not drawn), the AC50 [1] is reported as 2 µM [falling, partial curve, poor fit].
In the case of `Cc1nn(-c2ccccc2)c2[nH]c(=O)cc(C(F)(F)F)c12`, the AC50 [1] is reported as 35.5 µM [falling, single point].
In the case of `Cc1ccc2cc(CN(Cc3ccc4c(c3)OCO4)Cc3nnnn3Cc3ccco3)c(=O)[nH]c2c1`, the AC50 [1] is reported as 6.51 µM [falling, single point].
In the case of `Nc1nonc1-c1noc(CCCOc2ccc(Cl)cc2Cl)n1`, the AC50 [1] is reported as 3.66 µM [rising, partial curve, poor fit].
With `O=C(COc1ccc2ccccc2c1)Nc1nc2ccccc2[nH]1` the AC50 [1] was 6.51 µM [falling, single point].
For `c1ccc(Cn2c(-c3cncs3)nc3ccccc32)cc1`, the AC50 [1] was 11.6 µM [falling, partial curve].
With `O=C(N/N=C/c1ccc(Cl)cc1Cl)Nc1ccccc1` the AC50 [1] was 1 µM [rising, full curve, poor fit].
In the case of `Cc1cc(C)c2nc(SCC(=O)N3CC(=O)Nc4ccccc43)c(C#N)cc2c1`, the AC50 [1] is reported as 0.651 µM [rising, full curve] and the AC50 [2] is reported as 0.92 µM [falling, full curve, poor fit].
In the case of `CCOC(=O)c1cc2c(nc1N)CC(C)(CC)OC2` (stereo not drawn), the AC50 [1] is reported as 5.8 µM [rising, partial curve, poor fit].
In the case of `CN(Cc1cn(-c2ccccc2)nc1-c1ccc(Cl)cc1)C(=O)CCC(=O)O`, the AC50 [1] is reported as 2.91 µM [rising, full curve].
In the case of `c1ccc(-c2nnc3sc(Cc4cccs4)nn23)cc1`, the AC50 [1] is reported as 1.84 µM [rising, partial curve, poor fit].
In the case of `COc1ccc(N2CCN(C(=O)CCCOc3cc(=O)n(C)c4ccccc34)CC2)cc1`, the AC50 [1] is reported as 15.8 µM [rising, single point].
For `Cc1cc(N/N=C/c2ccc(O)cc2O)nc(N2CCOCC2)n1`, the AC50 [1] was 15.8 µM [falling, single point].
With `Clc1cc(Cl)c2nc(N3CCCCC3)sc2c1` the AC50 [1] was 12.6 µM [rising, partial curve].
For `COCc1cc(=O)n2[nH]c(-c3ccccc3)cc2n1`, the AC50 [1] was 6.31 µM [falling, partial curve, poor fit].
In the case of `Cc1cc(C)c2c(N)c(C(=O)N3CCc4ccccc4C3)sc2n1`, the AC50 [1] is reported as 22.4 µM [falling, single point].
In the case of `CCC(C(=O)NCCC(C)C)N(Cc1ccccc1Cl)C(=O)c1snc(C(N)=O)c1N` (stereo not drawn), the AC50 [1] is reported as 35.5 µM [falling, single point].
For `COc1ccc(NC(=O)CN(C)C(=O)CC2CCCCC2)cc1`, the AC50 [1] was 32.6 µM [rising, partial curve, poor fit].
With `Cc1cc(OCC(O)CNC(C)c2ccccc2)ccc1C(C)C` (stereo not drawn) the AC50 [1] was 7.08 µM [falling, partial curve, poor fit].
With `O=C(Nc1cc([N+](=O)[O-])ccc1O)c1cccc(C(=O)Nc2cc([N+](=O)[O-])ccc2O)c1` the AC50 [1] was 10 µM [falling, partial curve, poor fit].
For `O=C(N/N=C/c1cn(-c2ccccc2)nc1-c1cccnc1)c1cccnc1`, the AC50 [1] was 2.82 µM [falling, single point].
With `O=C(CSc1nccc(=O)[nH]1)c1c[nH]c2ccccc12` the AC50 [1] was 4.47 µM [falling, partial curve].
For `CCCN=C1N(CC)C[C@@H]2[C@@H]3C(=O)N(C)C(=O)[C@@H]3[C@](C)(C(=O)OC)N12`, the AC50 [1] was 0.146 µM [rising, full curve, poor fit].
With `CCOC(=O)c1cccc(NC(=O)N2CCOCC2)c1` the AC50 [1] was 35.5 µM [rising, single point].
With `CN(C)c1nc(N)nc(-c2ccco2)n1` the AC50 [1] was 5.17 µM [falling, partial curve, poor fit].
With `COc1ccc2sc(-c3ccccc3OC)c(-c3ccc(OC)nc3)c2c1` the AC50 [1] was 18.4 µM [rising, partial curve, poor fit].
In the case of `Cc1ccc(/C=N/Nc2ccc3ccccc3n2)o1`, the AC50 [1] is reported as 2.82 µM [falling, full curve].
In the case of `COc1cccc(CNC(=O)c2cc(S(=O)(=O)N3CCOCC3)cn2C)c1`, the AC50 [1] is reported as 2.82 µM [rising, partial curve].
In the case of `Cc1cc(C)c(C)c(N=Nc2nc3ccccc3n2C)c1C`, the AC50 [1] is reported as 0.651 µM [rising, full curve, poor fit].
With `S=C(Nc1nc2c(s1)CCCC2)NC1CC1` the AC50 [2] was 17.8 µM [falling, single point].
In the case of `COc1ccc(Oc2cc(C)c3ccccc3n2)cc1`, the AC50 [1] is reported as 11.2 µM [rising, partial curve, poor fit].
For `O=C(Nc1c(C(=O)Nc2cccc3ccccc23)cnn1-c1ccccc1)c1ccco1`, the AC50 [1] was 9.2 µM [falling, partial curve, poor fit].
In the case of `CS(=O)(=O)N(CC(=O)Nc1ccc2c(c1)OCO2)c1ccc(Cl)cc1`, the AC50 [1] is reported as 6.31 µM [falling, partial curve].
In the case of `Cc1noc(C)c1S(=O)(=O)N1CCCC(C(=O)NCCc2ccc(Cl)cc2)C1` (stereo not drawn), the AC50 [1] is reported as 29.1 µM [falling, single point].
For `CN(C)c1ccc(-c2nnn(CC(=O)Nc3ccccc3N3CCOCC3)n2)cc1`, the AC50 [1] was 14.1 µM [falling, single point].
In the case of `O=C(NC(Cc1c[nH]c2ccccc12)C(=O)O)/C(=C/c1ccco1)NC(=O)c1ccccc1` (stereo not drawn), the AC50 [1] is reported as 35.5 µM [falling, single point].
For `O=C1CSC(=S)N1c1cccc(F)c1`, the AC50 [1] was 35.5 µM [falling, single point].
In the case of `CCC(=O)Nc1cccc(-c2ccc(N3CCC(C)CC3)nn2)c1`, the AC50 [1] is reported as 1.78 µM [falling, full curve, poor fit].
For `N#CC1CCN(C(=O)c2ccc3c(Cl)c4c(nc3c2)CCCC4)CC1`, the AC50 [1] was 35.5 µM [falling, single point].
In the case of `CC(=O)c1c(C)nc2ccc(Br)cc2c1C(=O)O`, the AC50 [1] is reported as 5.8 µM [rising, full curve].
